Measured data: PubChem BioAssay AID1259405 (NCATS, 2018)

Aim: 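Mouse-designed siRNAs used to find CHO productivity engineering targets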 (primary screen)
System: Chinese hamster CHO-K1 ovary cells with stable secreted eGFP expression
Knock-down reagent: single siRNA against mouse genes, 0.8 pmol siRNA per well (2 µl of 400 nM stock)
Duration: 3 days
Measurement: 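Per-well intracellular GFP measured by laser scanning cytometry, plus viability from ATP luminescence, each relative to plate median of non-targeting control wells, in %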
Scale: GFP, % of control: higher = more GFP per well, higher productivity; viability (ATP), % of control: higher = more viable cells (more ATP)
Hit rule: 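a knock-down is called active if GFP reaches 120% or more of non-targeting control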
The whole screen tested about 50,000 reagents; shown is a random part of them. About 4,000 of them (8%) were called active. 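Mouse siRNA library applied to hamster cells; one well for each siRNA.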 The numbers tell different reagents against one gene apart.

Gene,reagent no.,"GFP, % of control","viability (ATP), % of control",Outcome
Cuedc2 (CUE domain containing 2),1,67.4,93.4,inactive
Cuedc2 (CUE domain containing 2),2,62.4,89.9,inactive
Cuedc2 (CUE domain containing 2),3,67.1,93.3,inactive
Vmn1r43 (vomeronasal 1 receptor 43),1,88.8,54.7,inactive
Vmn1r43 (vomeronasal 1 receptor 43),2,48.2,47.5,inactive
Vmn1r43 (vomeronasal 1 receptor 43),3,54.2,86.2,inactive
Wdr75 (WD repeat domain 75),1,122,57.8,active
Wdr75 (WD repeat domain 75),2,51.1,25.3,inactive
Wdr75 (WD repeat domain 75),3,86.5,80.2,inactive
Nudcd3 (NudC domain containing 3),1,82.9,92.4,inactive
Nudcd3 (NudC domain containing 3),2,53.8,60,inactive
Nudcd3 (NudC domain containing 3),3,54.9,88.7,inactive
"Scube1 (signal peptide, CUB domain, EGF-like 1)",1,21.5,36,inactive
"Scube1 (signal peptide, CUB domain, EGF-like 1)",2,119,106,inactive
"Scube1 (signal peptide, CUB domain, EGF-like 1)",3,99.8,69.1,inactive
Afg3l1 (AFG3-like AAA ATPase 1),1,61.7,60.6,inactive
Afg3l1 (AFG3-like AAA ATPase 1),2,37.2,42.6,inactive
Afg3l1 (AFG3-like AAA ATPase 1),3,98.9,61.6,inactive
Or6c208 (olfactory receptor family 6 subfamily C member 208),1,39.8,41.9,inactive
Or6c208 (olfactory receptor family 6 subfamily C member 208),2,126,95.7,active
Or6c208 (olfactory receptor family 6 subfamily C member 208),3,91.7,98.5,inactive
Cebpb (CCAAT/enhancer binding protein beta),1,90,45.1,inactive
Cebpb (CCAAT/enhancer binding protein beta),2,108,72.4,inactive
"Aldh9a1 (aldehyde dehydrogenase 9, subfamily A1)",1,71.9,89.3,inactive
"Aldh9a1 (aldehyde dehydrogenase 9, subfamily A1)",2,61.8,65.7,inactive
"Aldh9a1 (aldehyde dehydrogenase 9, subfamily A1)",3,59.2,86.7,inactive
Khk (ketohexokinase),1,76.3,85.9,inactive
Khk (ketohexokinase),2,78.5,62.2,inactive
Khk (ketohexokinase),3,77.9,86.4,inactive

As entered above:
Scube1 (signal peptide, CUB domain, EGF-like 1) #2, viability (ATP), % of control → 106
For “viability (ATP), % of control”, Cebpb (CCAAT/enhancer binding protein beta) #1 shows 45.1
For “viability (ATP), % of control”, Cuedc2 (CUE domain containing 2) #3 shows 93.3
For “viability (ATP), % of control”, Afg3l1 (AFG3-like AAA ATPase 1) #2 shows 42.6
Value of Vmn1r43 (vomeronasal 1 receptor 43) #2 in “Outcome”: inactive
Entry of Cuedc2 (CUE domain containing 2) #2 in “viability (ATP), % of control”: 89.9

The listing continues:
Gene,reagent no.,"GFP, % of control","viability (ATP), % of control",Outcome
Fkbp11 (FK506 binding protein 11),1,108,103,inactive
Fkbp11 (FK506 binding protein 11),2,131,108,active
Fkbp11 (FK506 binding protein 11),3,67.2,71.4,inactive
Gpn2 (GPN-loop GTPase 2),1,59.6,62.3,inactive
Gpn2 (GPN-loop GTPase 2),2,70.1,58.5,inactive
Gpn2 (GPN-loop GTPase 2),3,101,51.8,inactive
A930017M01Rik (RIKEN cDNA A930017M01 gene),1,73.5,61,inactive
A930017M01Rik (RIKEN cDNA A930017M01 gene),2,85.8,73.7,inactive
A930017M01Rik (RIKEN cDNA A930017M01 gene),3,52.5,61.9,inactive
"Ddr2 (discoidin domain receptor family, member 2)",1,73,103,inactive
"Ddr2 (discoidin domain receptor family, member 2)",2,61.6,75.2,inactive
"Ddr2 (discoidin domain receptor family, member 2)",3,67.4,86.9,inactive
Caml (calcium modulating ligand),1,65.9,75.3,inactive
Caml (calcium modulating ligand),2,36.5,42.2,inactive
Caml (calcium modulating ligand),3,107,119,inactive
Slc16a10,1,76.7,74.3,inactive
Slc16a10,2,99.9,87.3,inactive
Slc16a10,3,84.4,77.3,inactive
4930451E10Rik (RIKEN cDNA 4930451E10 gene),1,84.4,76.4,inactive
4930451E10Rik (RIKEN cDNA 4930451E10 gene),2,23.5,20.1,inactive
4930451E10Rik (RIKEN cDNA 4930451E10 gene),3,73.2,97.9,inactive
Cebpa (CCAAT/enhancer binding protein alpha),1,63.1,53,inactive
Cebpa (CCAAT/enhancer binding protein alpha),2,74.5,51.5,inactive
Cebpa (CCAAT/enhancer binding protein alpha),3,106,111,inactive
Borcs7 (BLOC-1 related complex subunit 7),1,72.3,97.5,inactive
Borcs7 (BLOC-1 related complex subunit 7),2,65.4,98.6,inactive
Borcs7 (BLOC-1 related complex subunit 7),3,95.8,118,inactive
"Mmachc (methylmalonic aciduria cblC type, with homocystinuria)",1,54.9,80.5,inactive
"Mmachc (methylmalonic aciduria cblC type, with homocystinuria)",2,47,47.1,inactive
"Mmachc (methylmalonic aciduria cblC type, with homocystinuria)",3,78.3,75.7,inactive
